Test results from patent CN115368461A.
These are yes or no findings as the source states them, for the method shown. Some results given as binding are weak or reduced against the parent protein; the word gives no strength.

Biological target: 猴TROP2-his (CynoTROP2-His), ACRO TR2-R52H3 (cynomolgus monkey (食蟹猴))
Assay: ForteBio Octet BLI; antibody on Protein A sensor, 100nM antigen

Row | binding | Binder
1 | binds | mAb29 (antibody, V domains shown) VH: EVKLVESGGDLVQPGGSLKLSCAASGFSFSDYYMYWVRQTPEKRLEWVANIDNGGDTTYYPDTVKGRFTISRDNAKNTLYLQMSRLKSEDTAMYYCARHDPLTGPPFFAMDYWGQGTSVTVSS VL: DIQMTQSPSSLSASLGGKVTISCKASQGINQYIAWYQLKPGKGPRLLIHYTSTLQPGVPSRFSGSGSGRDYSFSISNLEPEDIASYYCLQYDNLWTFGGGTKLEIK
2 | binds | mAb53 (antibody, V domains shown) VH: QVQLQQPGAELVKPGASVKMSCKASGYTFTSYWITWVKQRPGQGLEWIGNIHPGSSTTNYNEKFKSKATLTVHTSSSTVYMQLTSLTSEDSAVYYCAREVGDYWGQGTSVTVSS VL: DILLTQSPAILSVSPGERASFSCRASQIIGTSIHWYQQRTNGSPRLLIKYVSESISGIPSRFSGSGSGTDFTLSINSVESEDIADYYCQQSHSWPFTFGGGTKL
